Assay results published in the supplement of paper PMC8728848.
The other results are listed elsewhere or left out.

Columns and labels:
Assay in all cases: glycan array binding signal (z-score within array); higher = stronger binding
Conditions in all cases: glycan notation: IUPAC condensed, linker removed
[1] = target: Neu5Ac(a2-3)Gal(b1-3)GalNAc
Outline: (§1)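 The binding signal is a Z-score computed within each array and averaged over linkers. Arrays of the same protein sequence at different concentrations or buffers were also averaged together. Data originate from 3228 arrays in the Consortium for Functional Glycomics database, kept only where the protein sequence was available.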

[2] = target: Neu5Ac(a2-3)Gal(b1-3)GalNAc(b1-3)Gal(a1-4)Gal(b1-4)Glc
Outline: as §1

[3] = target: Neu5Ac(a2-3)Gal(b1-3)GalNAc(b1-4)[Neu5Ac(a2-3)]Gal(b1-4)Glc
Outline: as §1

[4] = target: Neu5Ac(a2-3)Gal(b1-3)GalNAc(b1-4)[Neu5Ac(a2-8)Neu5Ac(a2-3)]Gal(b1-4)Glc
Outline: as §1

[5] = target: Neu5Ac(a2-3)Gal(b1-3)GalNAc6S
Outline: as §1

[6] = target: Neu5Ac(a2-3)Gal(b1-3)GlcNAc
Outline: as §1

[7] = target: Neu5Ac(a2-3)Gal(b1-3)GlcNAc(b1-2)Man
Outline: as §1

[8] = target: Neu5Ac(a2-3)Gal(b1-3)GlcNAc(b1-2)Man(a1-3)[GlcNAc(b1-4)][Neu5Ac(a2-3)Gal(b1-3)GlcNAc(b1-2)Man(a1-6)]Man(b1-4)GlcNAc(b1-4)GlcNAc
Outline: as §1

[9] = target: Neu5Ac(a2-3)Gal(b1-3)GlcNAc(b1-2)Man(a1-3)[Neu5Ac(a2-3)Gal(b1-3)GlcNAc(b1-2)Man(a1-6)]Man(b1-4)GlcNAc(b1-4)GlcNAc
Outline: as §1

[10] = target: Neu5Ac(a2-3)Gal(b1-3)GlcNAc(b1-3)Gal(b1-3)GlcNAc
Outline: as §1

[11] = target: Neu5Ac(a2-3)Gal(b1-3)GlcNAc(b1-3)Gal(b1-4)GlcNAc
Outline: as §1

[12] = target: Neu5Ac(a2-3)Gal(b1-3)GlcNAc(b1-3)GalNAc
Outline: as §1

[13] = target: Neu5Ac(a2-3)Gal(b1-3)GlcNAc(b1-4)Gal(b1-4)Glc
Outline: as §1

[14] = target: Neu5Ac(a2-3)Gal(b1-3)GlcNAc(b1-6)GalNAc
Outline: as §1

[15] = target: Neu5Ac(a2-3)Gal(b1-3)GlcNAc6S
Outline: as §1

[16] = target: Neu5Ac(a2-3)Gal(b1-3)[Fuc(a1-4)]GlcNAc
Outline: as §1

[17] = target: Neu5Ac(a2-3)Gal(b1-3)[Fuc(a1-4)]GlcNAc(b1-3)Gal(b1-3)[Fuc(a1-4)]GlcNAc
Outline: as §1

[18] = target: Neu5Ac(a2-3)Gal(b1-3)[Fuc(a1-4)]GlcNAc(b1-3)Gal(b1-4)[Fuc(a1-3)]GlcNAc
Outline: as §1

[19] = target: Neu5Ac(a2-3)Gal(b1-3)[GlcNAc(b1-6)]GalNAc
Outline: as §1

[20] = target: Neu5Ac(a2-3)Gal(b1-3)[Neu5Ac(a2-6)]GalNAc
Outline: as §1

[21] = target: Neu5Ac(a2-3)Gal(b1-3)[Neu5Ac(a2-6)]GlcNAc(b1-3)[Fuc(a1-3)[Gal(b1-4)]GlcNAc(b1-6)]Gal(b1-4)Glc
Outline: as §1

[22] = target: Neu5Ac(a2-3)Gal(b1-3)]Neu5Ac(a2-3)Gal(b1-4)]GlcNAc
Outline: as §1

[23] = target: Neu5Ac(a2-3)Gal(b1-4)Glc
Outline: as §1

[24] = target: Neu5Ac(a2-3)Gal(b1-4)GlcNAc
Outline: as §1

[25] = target: Neu5Ac(a2-3)Gal(b1-4)GlcNAc(b1-2)Man
Outline: as §1

[26] = target: Neu5Ac(a2-3)Gal(b1-4)GlcNAc(b1-2)Man(a1-3)[GlcNAc(b1-4)][Neu5Ac(a2-3)Gal(b1-4)GlcNAc(b1-2)Man(a1-6)]Man(b1-4)GlcNAc(b1-4)GlcNAc
Outline: as §1

[27] = target: Neu5Ac(a2-3)Gal(b1-4)GlcNAc(b1-2)Man(a1-3)[Neu5Ac(a2-3)Gal(b1-4)GlcNAc(b1-2)Man(a1-6)]Man(b1-4)GlcNAc(b1-4)GlcNAc
Outline: as §1

[28] = target: Neu5Ac(a2-3)Gal(b1-4)GlcNAc(b1-2)Man(a1-3)[Neu5Ac(a2-3)Gal(b1-4)GlcNAc(b1-2)Man(a1-6)]Man(b1-4)GlcNAc(b1-4)[Fuc(a1-6)]GlcNAc
Outline: as §1

[29] = target: Neu5Ac(a2-3)Gal(b1-4)GlcNAc(b1-2)Man(a1-3)[Neu5Ac(a2-6)Gal(b1-4)GlcNAc(b1-2)Man(a1-6)]Man(b1-4)GlcNAc(b1-4)GlcNAc
Outline: as §1

[30] = target: Neu5Ac(a2-3)Gal(b1-4)GlcNAc(b1-2)[Neu5Ac(a2-3)Gal(b1-4)GlcNAc(b1-4)]Man(a1-3)[GlcNAc(b1-4)][Neu5Ac(a2-3)Gal(b1-4)GlcNAc(b1-2)[Neu5Ac(a2-3)Gal(b1-4)GlcNAc(b1-6)]Man(a1-6)]Man(b1-4)GlcNAc(b1-4)GlcNAc
Outline: as §1

[31] = target: Neu5Ac(a2-3)Gal(b1-4)GlcNAc(b1-2)[Neu5Ac(a2-3)Gal(b1-4)GlcNAc(b1-4)]Man(a1-3)[GlcNAc(b1-4)][Neu5Ac(a2-3)Gal(b1-4)GlcNAc(b1-4)Man(a1-6)]Man(b1-4)GlcNAc(b1-4)GlcNAc
Outline: as §1

[32] = target: Neu5Ac(a2-3)Gal(b1-4)GlcNAc(b1-2)[Neu5Ac(a2-3)Gal(b1-4)GlcNAc(b1-6)]Man(a1-6)[Neu5Ac(a2-3)Gal(b1-4)GlcNAc(b1-2)Man(a1-3)]Man(b1-4)GlcNAc(b1-4)GlcNAc
Outline: as §1

[33] = target: Neu5Ac(a2-3)Gal(b1-4)GlcNAc(b1-2)[Neu5Ac(a2-3)Gal(b1-4)GlcNAc(b1-6)]Man(a1-6)[Neu5Ac(a2-3)Gal(b1-4)GlcNAc(b1-2)Man(a1-3)][GlcNAc(b1-4)]Man(b1-4)GlcNAc(b1-4)GlcNAc
Outline: as §1

[34] = target: Neu5Ac(a2-3)Gal(b1-4)GlcNAc(b1-3)Gal
Outline: as §1

[35] = target: Neu5Ac(a2-3)Gal(b1-4)GlcNAc(b1-3)Gal(b1-3)GlcNAc
Outline: as §1

[36] = target: Neu5Ac(a2-3)Gal(b1-4)GlcNAc(b1-3)Gal(b1-4)GlcNAc
Outline: as §1

[37] = target: Neu5Ac(a2-3)Gal(b1-4)GlcNAc(b1-3)Gal(b1-4)GlcNAc(b1-2)Man(a1-3)[Neu5Ac(a2-3)Gal(b1-4)GlcNAc(b1-3)Gal(b1-4)GlcNAc(b1-2)Man(a1-6)]Man(b1-4)GlcNAc(b1-4)GlcNAc
Outline: as §1

B1: SP15308F-bth-333-19-333 (Bacteroides thetaiotaomicron) (protein)
chain: SCNNEWESEQYVQMVSFKAPVNAQGVTPIYIRYKPEGKVTYQLPLIVSGSTMNSKDLNVHVGLDLDTLDVLNVEHFGSRKELFFKPLENKYYEFPETVQIPAGECTSLLPIDFALKDLDQVDKWVLPLAIQSNDPSHNYQANPRKFYRRAMLRISPFNDYSGQYSATAYKVYFKGNEKEAIVPEYHTSYVIDDKTIFFYAGLIDIDRLDRKYYKIKFEFTEEKIDLQTRKLKISSDNEDINLVVKGQPSYTVEEEMDATRPYLKHIYVTINNLEYEFTDYTSVPGYPLEYVVKGSLTMERKINTQIPDEDQAIEW
- glycan array binding signal (z-score) [1]: 1.83
- glycan array binding signal (z-score) [2]: -0.692
- glycan array binding signal (z-score) [3]: -0.044
- glycan array binding signal (z-score) [4]: 0.059
- glycan array binding signal (z-score) [5]: -0.114
- glycan array binding signal (z-score) [6]: -0.28
- glycan array binding signal (z-score) [7]: 1.15
- glycan array binding signal (z-score) [8]: -0.819
- glycan array binding signal (z-score) [9]: -1.03
- glycan array binding signal (z-score) [10]: -0.7
- glycan array binding signal (z-score) [11]: -0.006
- glycan array binding signal (z-score) [12]: 0.286
- glycan array binding signal (z-score) [13]: -0.657
- glycan array binding signal (z-score) [14]: -0.449
- glycan array binding signal (z-score) [15]: 0.742
- glycan array binding signal (z-score) [16]: -0.068
- glycan array binding signal (z-score) [17]: 1.04
- glycan array binding signal (z-score) [18]: -0.239
- glycan array binding signal (z-score) [19]: 1.33
- glycan array binding signal (z-score) [20]: -0.352
- glycan array binding signal (z-score) [21]: -0.039
- glycan array binding signal (z-score) [22]: -0.935
- glycan array binding signal (z-score) [23]: 0.589
- glycan array binding signal (z-score) [24]: -0.055
- glycan array binding signal (z-score) [25]: -0.553
- glycan array binding signal (z-score) [26]: 0.75
- glycan array binding signal (z-score) [27]: -0.825
- glycan array binding signal (z-score) [28]: -0.251
- glycan array binding signal (z-score) [29]: -1.15
- glycan array binding signal (z-score) [30]: 1.69
- glycan array binding signal (z-score) [31]: -0.961
- glycan array binding signal (z-score) [32]: -0.534
- glycan array binding signal (z-score) [33]: -0.036
- glycan array binding signal (z-score) [34]: 1.19
- glycan array binding signal (z-score) [35]: 0.811
- glycan array binding signal (z-score) [36]: 0.018
- glycan array binding signal (z-score) [37]: 2.21
